{"source": "patent US20090214544A1", "about": "“Method of treating cd30 positive lymphomas” (MEDAREX, priority 2005, published 2009)", "origin": "cited, not measured here", "conditions": "guidance for hydrocortisone equivalents; actual potency may vary slightly; cited from earlier work", "note": "At least one structure is not confirmed: it was looked up by name or label, or the drawing left a doubt."}
{"smiles": "C[C@]12CCC(=O)C=C1CC[C@H]1[C@@H]3CC[C@](O)(C(=O)CO)[C@@]3(C)C[C@H](O)[C@@]12F", "note": "[Fludrocortisone]", "values": [{"measurement": "Relative potency in mg to hydrocortisone", "value": 15}]}
